Results as given in patent US20140302026A1.
Results are given in words; binding and its absence hold for the method and conditions named. Some entries that bind do so weakly or less than the wild type.

Chains of the proteins cited; added tags and fusions are not shown. Lines headed by an entry give the natural chain unless they say otherwise; changes in a name come on top. A line that says so, or that is headed by a name, gives the form on record, which may keep a tag or linker. Residues count along the entry.
Human VEGF (R&D) (P15692, form named): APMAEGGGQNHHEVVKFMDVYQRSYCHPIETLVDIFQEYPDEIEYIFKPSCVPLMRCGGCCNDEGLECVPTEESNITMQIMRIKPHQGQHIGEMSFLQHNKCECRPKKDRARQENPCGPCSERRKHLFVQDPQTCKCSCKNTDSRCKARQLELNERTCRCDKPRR
UniProt P02751, residues 32-2477: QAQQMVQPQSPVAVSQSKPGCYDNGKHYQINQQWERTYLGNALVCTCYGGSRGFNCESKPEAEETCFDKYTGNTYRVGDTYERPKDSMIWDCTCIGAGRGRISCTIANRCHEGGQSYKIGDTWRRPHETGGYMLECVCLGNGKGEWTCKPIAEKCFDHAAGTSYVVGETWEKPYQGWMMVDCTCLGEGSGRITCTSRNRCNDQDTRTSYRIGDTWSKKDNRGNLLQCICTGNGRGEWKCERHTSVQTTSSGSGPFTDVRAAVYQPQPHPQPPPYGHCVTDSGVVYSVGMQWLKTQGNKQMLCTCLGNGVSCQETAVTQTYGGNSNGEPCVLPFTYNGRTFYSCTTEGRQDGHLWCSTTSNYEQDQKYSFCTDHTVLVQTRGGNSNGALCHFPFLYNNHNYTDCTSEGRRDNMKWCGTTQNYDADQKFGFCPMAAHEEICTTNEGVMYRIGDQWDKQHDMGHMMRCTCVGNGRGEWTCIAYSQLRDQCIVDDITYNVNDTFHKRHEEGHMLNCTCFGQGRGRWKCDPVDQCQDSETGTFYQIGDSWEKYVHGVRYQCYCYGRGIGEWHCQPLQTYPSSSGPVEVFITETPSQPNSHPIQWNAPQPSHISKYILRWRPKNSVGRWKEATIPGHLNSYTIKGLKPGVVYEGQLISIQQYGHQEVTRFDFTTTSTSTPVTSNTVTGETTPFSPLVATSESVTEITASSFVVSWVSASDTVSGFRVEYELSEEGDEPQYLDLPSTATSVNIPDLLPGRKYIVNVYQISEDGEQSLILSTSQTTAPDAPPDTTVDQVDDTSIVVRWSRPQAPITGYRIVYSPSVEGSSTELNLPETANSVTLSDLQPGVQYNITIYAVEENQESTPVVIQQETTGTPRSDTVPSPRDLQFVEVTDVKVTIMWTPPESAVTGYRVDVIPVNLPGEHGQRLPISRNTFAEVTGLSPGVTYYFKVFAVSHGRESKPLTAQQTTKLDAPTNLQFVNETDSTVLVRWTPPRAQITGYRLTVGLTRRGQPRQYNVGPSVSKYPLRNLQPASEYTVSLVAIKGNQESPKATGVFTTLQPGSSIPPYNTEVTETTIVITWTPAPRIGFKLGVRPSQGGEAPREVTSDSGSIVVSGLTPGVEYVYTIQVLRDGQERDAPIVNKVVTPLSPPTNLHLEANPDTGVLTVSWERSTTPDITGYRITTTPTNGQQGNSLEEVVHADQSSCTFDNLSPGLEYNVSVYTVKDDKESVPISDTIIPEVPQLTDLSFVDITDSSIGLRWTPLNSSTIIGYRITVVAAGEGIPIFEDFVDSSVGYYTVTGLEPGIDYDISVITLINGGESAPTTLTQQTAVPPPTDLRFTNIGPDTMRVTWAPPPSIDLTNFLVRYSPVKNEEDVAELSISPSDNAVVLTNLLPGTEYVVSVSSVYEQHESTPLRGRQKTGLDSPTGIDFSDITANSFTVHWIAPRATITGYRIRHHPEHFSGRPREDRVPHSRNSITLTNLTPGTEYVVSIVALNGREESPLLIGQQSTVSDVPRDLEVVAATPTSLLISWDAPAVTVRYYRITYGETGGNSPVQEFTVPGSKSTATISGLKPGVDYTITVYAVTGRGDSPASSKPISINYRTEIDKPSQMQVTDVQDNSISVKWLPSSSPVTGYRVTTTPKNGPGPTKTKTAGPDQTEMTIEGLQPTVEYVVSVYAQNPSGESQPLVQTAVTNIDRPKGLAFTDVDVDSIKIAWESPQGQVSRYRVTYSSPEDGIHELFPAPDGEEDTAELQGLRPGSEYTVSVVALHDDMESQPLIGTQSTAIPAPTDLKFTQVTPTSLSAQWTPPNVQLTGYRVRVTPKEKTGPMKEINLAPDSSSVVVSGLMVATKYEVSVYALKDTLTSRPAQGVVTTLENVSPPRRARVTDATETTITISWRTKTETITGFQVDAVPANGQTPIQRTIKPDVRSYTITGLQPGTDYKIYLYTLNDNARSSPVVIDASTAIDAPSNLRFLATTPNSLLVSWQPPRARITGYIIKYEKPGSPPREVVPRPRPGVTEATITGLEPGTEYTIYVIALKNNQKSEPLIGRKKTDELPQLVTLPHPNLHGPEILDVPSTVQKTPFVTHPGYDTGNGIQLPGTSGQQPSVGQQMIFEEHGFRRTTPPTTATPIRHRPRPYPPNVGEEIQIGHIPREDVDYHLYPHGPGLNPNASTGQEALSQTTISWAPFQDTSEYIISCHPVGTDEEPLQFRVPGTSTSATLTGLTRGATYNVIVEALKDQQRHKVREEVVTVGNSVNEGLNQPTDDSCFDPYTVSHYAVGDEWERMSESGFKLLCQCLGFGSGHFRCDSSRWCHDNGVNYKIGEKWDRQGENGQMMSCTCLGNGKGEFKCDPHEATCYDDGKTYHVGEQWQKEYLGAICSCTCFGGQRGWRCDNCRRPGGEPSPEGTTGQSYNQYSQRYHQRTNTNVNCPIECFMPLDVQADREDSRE
human Fc-endostatin (P39060, residues 1572-1754): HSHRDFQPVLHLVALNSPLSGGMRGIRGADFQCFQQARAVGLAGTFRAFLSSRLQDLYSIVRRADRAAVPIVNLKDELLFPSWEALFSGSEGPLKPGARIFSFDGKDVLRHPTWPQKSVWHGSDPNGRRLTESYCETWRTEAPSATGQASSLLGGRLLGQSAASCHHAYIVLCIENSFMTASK
27 amino acid NH2-terminal region of the endostatin domain (peptide) (P39060, residues 1572-1598): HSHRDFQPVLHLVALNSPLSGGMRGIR

Experiments:
Human VEGF (R&D) (human) = Human VEGF (R&D) (human) (UniProt P15692); test: preliminary data; peptide competition with VEGF-Fc-Endostatin binding
fibronectin [1] = biological target: fibronectin (UniProt P02751); test: ELISA; proteins coated at 10 µg/ml, fibronectin as ligand
fibronectin [2] = biological target: fibronectin (UniProt P02751); test: discussion of the examples
fibronectin [3] = biological target: fibronectin (UniProt P02751); test: summary of the earlier examples (ELISA, Biacore)
fibronectin [4] = biological target: fibronectin (UniProt P02751); test: SPR (Biacore T100); protein immobilised on CM4, fibronectin as analyte
fibronectin [5] = biological target: fibronectin (UniProt P02751); test: SPR (Biacore); data not shown
fibronectin [6] = biological target: fibronectin (UniProt P02751); test: summary of the earlier examples (IP, ELISA, Biacore)

Row | binding (Human VEGF (R&D) (human)) | binding (fibronectin [1]) | binding (fibronectin [2]) | binding (fibronectin [3]) | binding (fibronectin [4]) | binding (fibronectin [5]) | binding (fibronectin [6]) | Substance
1 | binds | – | – | – | – | – | – | 27 amino acid NH2-terminal region of the endostatin domain (peptide) (from UniProt P39060 1572-1598)
2 | – | binds | binds | binds | binds | – | – | Human VEGF (R&D) (from UniProt P15692 27-191) (ligand)
3 | – | – | binds | – | – | binds | binds | human Fc-endostatin (from UniProt P39060 1572-1754) (Fc fusion)
4 | – | binds | binds | – | binds | – | – | human NC-1 (hNC-1) trimer of collagen 18 (from UniProt P39060 1443-1754)
